Changes are numbered by the printed parent chain. In names and notes the source's numbering stands. Results are given in words; binding and its absence hold for the method and conditions named. Binding seen in cells or lysates may run through a third protein. Some entries that bind do so weakly or less than the wild type. Tags and fused reporters may be left off the sequences shown.
B1: Smc1(K201C) (protein, UniProt P32908 1-1225)
chain: MGRLVGLELSNFKSYRGVTKVGFGESNFTSIIGPNGSGKSNMMDAISFVLGVRSNHLRSNILKDLIYRGVLNDENSDDYDNEGAASSNPQSAYVKAFYQKGNKLVELMRIISRNGDTSYKIDGKTVSYKDYSIFLENENILIKAKNFLVFQGDVEQIAAQSPVELSRMFEEVSGSIQYKKEYEELKEKIEKLSKSATESICNRRRIHGELKTYKEGINKNEEYRKQLDKKNELQKFQALWQLYHLEQQKEELTDKLSALNSEISSLKGKINNEMKSLQRSKSSFVKESAVISKQKSKLDYIFKDKEKLVSDLRLIKVPQQAAGKRISHIEKRIESLQKDLQRQKTYVERFETQLKVVTRSKEAFEEEIKQSARNYDKFKLNENDLKTYNCLHEKYLTEGGSILEEKIAVLNNDKREIQEELERFNKRADISKRRITEELSITGEKLDTQLNDLRVSLNEKNALHTERLHELKKLQSDIESANNQEYDLNFKLRETLVKIDDLSANQRETMKERKLRENIAMLKRFFPGVKGLVHDLCHPKKEKYGLAVSTILGKNFDSVIVENLTVAQECIAFLKKQRAGTASFIPLDTIETELPTLSLPDSQDYILSINAIDYEPEYEKAMQYVCGDSIICNTLNIAKDLKWKKGIRGKLVTIEGALIHKAGLMTGGISGDANNRWDKEEYQSLMSLKDKLLIQIDELSNGQRSNSIRAREVENSVSLLNSDIANLRTQVTQQKRSLDENRLEIKYHNDLIEKEIQPKITELKKKLDDLENTKDNLVKEKEALQNNIFKEFTSKIGFTIKEYENHSGELMRQQSKELQQLQKQILTVENKLQFETDRLSTTQRRYEKAQKDLENAQVEMKSLEEQEYAIEMKIGSIESKLEEHKNHLDELQKKFVTKQSELNSSEDILEDMNSNLQVLKRERDGIKEDIEKFDLERVTALKNCKISNINIPISSETTIDDLPISSTDNEAITISNSIDINYKGLPKKYKENNTDSARKELEQKIHEVEEILNELQPNARALERYDEAEGRFEVINNETEQLKAEEKKILNQFLKIKKKRKELFEKTFDYVSDHLDAIYRELTKNPNSNVELAGGNASLTIEDEDEPFNAGIKYHATPPLKRFKDMEYLSGGEKTVAALALLFAINSYQPSPFFVLDEVDAALDITNVQRIAAYIRRHRNPDLQFIVISLKNTMFEKSDALVGVYRQQQENSSKIITLDLSNYAE
B2: Smc1(K639C) (protein, UniProt P32908 1-1225)
chain: B1 chain with C201K, K639C

Assays:
[1] = target: T1, Smc3(K38I, K198C)-HaloTag (S. cerevisiae) (UniProt P47037); test: cross-linking
T1 sequence: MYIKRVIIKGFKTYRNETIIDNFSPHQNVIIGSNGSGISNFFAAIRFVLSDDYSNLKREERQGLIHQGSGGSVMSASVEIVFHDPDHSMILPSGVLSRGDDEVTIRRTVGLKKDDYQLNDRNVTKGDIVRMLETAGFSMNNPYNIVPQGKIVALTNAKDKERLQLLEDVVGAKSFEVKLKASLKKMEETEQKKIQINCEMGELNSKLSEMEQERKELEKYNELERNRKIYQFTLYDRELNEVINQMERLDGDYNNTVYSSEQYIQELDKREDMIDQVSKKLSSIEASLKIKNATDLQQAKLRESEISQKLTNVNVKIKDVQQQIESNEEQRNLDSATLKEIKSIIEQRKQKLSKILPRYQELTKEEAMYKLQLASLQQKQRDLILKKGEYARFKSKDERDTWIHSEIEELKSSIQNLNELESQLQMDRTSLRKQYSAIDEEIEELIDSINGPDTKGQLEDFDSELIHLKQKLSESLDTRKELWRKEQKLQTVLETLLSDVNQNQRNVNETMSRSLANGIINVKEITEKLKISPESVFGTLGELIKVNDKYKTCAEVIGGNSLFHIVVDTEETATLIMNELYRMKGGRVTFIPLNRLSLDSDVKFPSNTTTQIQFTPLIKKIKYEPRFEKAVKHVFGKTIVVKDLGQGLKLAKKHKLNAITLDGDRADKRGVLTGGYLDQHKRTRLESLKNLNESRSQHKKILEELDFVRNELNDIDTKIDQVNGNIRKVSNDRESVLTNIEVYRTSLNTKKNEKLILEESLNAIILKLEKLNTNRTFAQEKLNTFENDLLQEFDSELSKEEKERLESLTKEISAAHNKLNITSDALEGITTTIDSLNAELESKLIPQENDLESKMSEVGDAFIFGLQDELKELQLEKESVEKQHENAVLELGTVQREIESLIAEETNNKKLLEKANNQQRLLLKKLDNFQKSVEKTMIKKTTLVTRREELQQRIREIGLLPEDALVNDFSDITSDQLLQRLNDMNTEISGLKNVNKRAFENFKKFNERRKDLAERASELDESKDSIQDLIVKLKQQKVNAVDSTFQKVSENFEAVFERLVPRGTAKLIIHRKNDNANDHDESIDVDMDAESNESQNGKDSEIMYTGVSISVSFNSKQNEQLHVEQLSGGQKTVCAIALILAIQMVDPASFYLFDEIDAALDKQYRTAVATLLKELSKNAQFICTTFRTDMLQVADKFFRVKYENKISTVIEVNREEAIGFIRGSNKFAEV

[2] = target: T2, Smc3(E570C)-HaloTag (S. cerevisiae) (UniProt P47037); test: cross-linking
T2 sequence: T1 sequence with I38K, C198K, E570C

Binder | binding [1] | binding [2]
B1 | binds | –
B2 | – | binds

Reference: publication doi:10.1101/495762 (bioRxiv, 2018)
